The list shows a part of the results. Shown are side measurements of this screen, not its main read-out; they come without a call. Compounds called inactive in the main read-out are mostly missing here. Words in brackets tell the shape of the fitted curve; partial curves, single points and poor fits give uncertain potencies.
Assay: qHTS Assay for Lipid Storage Modulators in Drosophila S3 Cells;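 for cell number change: cells counted by Cell Tracker Red CMTPX staining in the red channel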
Details: BODIPY lipid droplet fluorescence, 18-24 h; for cell number change: measured here: cell count max response, cells fed with added oleic acid
In short: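 Drosophila S3 cells got compounds at several concentrations plus oleic acid (400 uM solution). Laser-scanning cytometry with 488 nm excitation read lipid droplets at 500-530 nm and cells at 575-640 nm. Percent activity was relative to 20 uM Triacsin C.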

[1] = measured here: cell number channel AC50, cells fed with added oleic acid
[2] = measured here: lipid fluorescence (Fed channel) AC50, cells fed with added oleic acid

Compound | cell number change [%] | AC50 [1] | AC50 [2]
COc1ccc(N(C(=O)Cc2cccs2)C(C(=O)NC2CCCCC2)c2cccn2C)cc1 (stereo not given) | 6.41 | 0.103 µM [falling, full curve, poor fit] | 0.58 µM [falling, full curve]
COc1ccc2oc(=N)c(C(=O)Nc3ccc(Br)cc3)cc2c1 |  |  | 29.1 µM [rising, single point]
CC1CCCN(C(=O)c2ccc(NS(=O)(=O)c3ccc4[nH]c(=O)[nH]c4c3)cc2)C1 (stereo not given) | -1.17 |  | 
O=C(OCCN1C(=O)c2cccc3c(N4CCOCC4)ccc(c23)C1=O)c1cc(Cl)cc(Cl)c1 | -48 | 29.1 µM [falling, single point] | 
C=CCn1c(N)cc(=O)nc1SCC(=O)N1CCN(c2ccc(F)cc2)CC1 | -24 |  | 29.1 µM [falling, single point]
CC(=O)Nc1cc(NC(C)=O)c2nc(N)sc2c1 | -0.919 |  | 5.8 µM [falling, single point]
CCOc1ccc(Br)cc1S(=O)(=O)N1CC(C)OC(C)C1 (stereo not given) | -1.16 |  | 6.51 µM [falling, single point]
COc1cc(/C=N/NC(=O)c2cccc(NC(=O)c3ccccc3Cl)c2)ccc1O | 7.85 |  | 0.517 µM [rising, full curve, poor fit]
Cc1coc2c1c(C)cc1oc(=O)c(CC(=O)N[C@H](C(=O)O)C(C)C)c(C)c12 | -2.84 |  | 
Cc1ccc(S(=O)(=O)N(CCC#N)CCN2CCCC2)cc1 | -41.7 | 6.51 µM [falling, full curve, poor fit] | 1.3 µM [falling, full curve]
CCOC(=O)/C=c1\s/c(=C\c2ccc3cc(OC)ccc3c2)c(=O)n1CC(=O)NCC1CCCO1 (stereo not given) | -11.1 |  | 6.51 µM [falling, single point]
CNc1c(NS(=O)(=O)c2cc(Cl)ccc2OC)c(=O)oc2ccccc12 | 2.25 |  | 
CCN(CC(=O)Nc1ccc(NC(C)=O)cc1)C(=O)CSc1nnc(-c2ccco2)n1CC | -44.4 | 29.1 µM [falling, single point] | 
COc1ccc2cc(C(c3nnnn3CCc3ccccc3)N3CCCC(C)C3)c(=O)[nH]c2c1 (stereo not given) | -9.56 |  | 
O=C(NC1(O)C(=O)c2ccccc2C1=O)c1ccccc1 | -16.1 | 0.461 µM [falling, full curve, poor fit] | 0.731 µM [falling, full curve]
C/C(=C\c1ccccc1)C(=O)Nc1cc(C)on1 |  | 0.116 µM [falling, full curve, poor fit] | 0.13 µM [falling, full curve, poor fit]
Cc1c(N2CCCC2)cc2c(c1N)C(C)(C)CC2(C)C | -38.3 | 29.1 µM [falling, single point] | 32.6 µM [falling, single point]
CCc1ccc(NC(=O)CCc2nc3cccnc3n2Cc2ccc(OC)cc2)cc1 | -50.4 | 29.1 µM [falling, single point] | 23.1 µM [falling, single point]
COc1ccccc1CC(=O)Nc1sc2c(c1C(N)=O)CCCC2 | 80 |  | 0.58 µM [rising, partial curve]

Exported field by field: entries from further up.
CC1CCCN(C(=O)c2ccc(NS(=O)(=O)c3ccc4[nH]c(=O)[nH]c4c3)cc2)C1 (stereo not given)
  cell number change [%]: -1.17
O=C(OCCN1C(=O)c2cccc3c(N4CCOCC4)ccc(c23)C1=O)c1cc(Cl)cc(Cl)c1
  cell number change [%]: -48; AC50 [1]: 29.1 µM [falling, single point]

The list continues:

Compound | cell number change [%] | AC50 [1] | AC50 [2]
Cc1cc(C(=O)CSc2nnc(-c3cccs3)n2Cc2ccccc2)c(C)n1C | -21.6 |  | 0.092 µM [rising, full curve, poor fit]
Cc1cc(C)n(C(=O)C(C(=O)c2ccccc2)C(C)C)n1 (stereo not given) | 4.11 |  | 6.51 µM [rising, single point]
CCOC(=O)CSc1nc2ccccc2n2c(C)nnc12 | 17.7 |  | 
O=C1C(=O)N(CC2CCCO2)C(c2ccco2)/C1=C(/O)c1ccc(F)cc1 (stereo not given) | 17.3 |  | 
COCCCn1c(SCC(=O)N2CCCC(C)C2)nnc1-c1ccco1 (stereo not given) | 16.5 |  | 29.1 µM [rising, single point]
COc1ccc2cc3cc(C(=O)NC4CC4)sc3nc2c1 | -7.08 |  | 1.03 µM [rising, partial curve]
COc1cc(NC(=O)c2sc3nc(C)nc(N4CCOCC4)c3c2C)cc(OC)c1OC | 3.23 |  | 29.1 µM [rising, single point]
CCOC(=O)c1cnc2c(Cl)cccc2c1NCCCN1CCOCC1 |  |  | 29.1 µM [rising, single point]
Cc1ccc(C(=O)N2C(=O)C(c3ccccc3)Oc3ccccc32)cc1 (stereo not given) | 0.32 | 0.58 µM [falling, single point] | 
COc1ccc(C)cc1NC(=O)C(c1ccccc1)N1CCN(CC(=O)NC2CC2)CC1 (stereo not given) | 132 | 18.4 µM [rising, partial curve] | 
Cn1c(C2CCCCC2)nc2c1c(=O)[nH]c(=O)n2Cc1ccccc1 | -32.5 | 0.184 µM [falling, full curve] | 
CSc1ccc(CN2CCSCC2)cc1 | -17.9 |  | 0.58 µM [rising, single point]
O=C1c2ccccc2C(Nc2ccc(-c3nc4ccccc4[nH]3)cc2)N1Cc1ccco1 (stereo not given) | -15.5 |  | 
CC1CCC(NC(=O)CN(C)S(=O)(=O)c2cnc[nH]2)CC1 (stereo not given) | 1.68 | 2.59 µM [falling, single point] | 2.59 µM [falling, single point]
Cc1c(N/N=C(\C#N)C(=O)c2ccc(Cl)cc2)c(=O)n(-c2ccccc2)n1C | 102 | 16.4 µM [rising, single point] | 29.1 µM [falling, single point]
Cc1nc(C2CC(=O)OC23CCCCC3)cs1 (stereo not given) | -0.414 | 0.103 µM [falling, full curve, poor fit] | 0.082 µM [falling, full curve, poor fit]
CCc1nnc(NC(=O)CSc2ncc(-c3ccccc3)n2CC)s1 | -17.7 |  | 2.31 µM [falling, single point]
O=C(c1ccc(S(=O)(=O)Nc2ccc(F)cc2)cc1)N1CCN(C(=O)c2ccco2)CC1 | -7.22 |  | 
CN1CCN(C(=O)/C(=C/c2cn(S(=O)(=O)N(C)C)c3ccccc23)NC(=O)c2ccccc2)CC1 | 33.6 | 0.731 µM [rising, full curve, poor fit] | 6.51 µM [rising, partial curve]

Reference: PubChem BioAssay AID2685 (National Center for Advancing Translational Sciences (NCATS), 2010)
